## Results of single-concentration screens

Protein sequences, listed by entry. Tags and fused reporters are not part of them. Residues count along the entry.
UniProt A4I591, 1-473: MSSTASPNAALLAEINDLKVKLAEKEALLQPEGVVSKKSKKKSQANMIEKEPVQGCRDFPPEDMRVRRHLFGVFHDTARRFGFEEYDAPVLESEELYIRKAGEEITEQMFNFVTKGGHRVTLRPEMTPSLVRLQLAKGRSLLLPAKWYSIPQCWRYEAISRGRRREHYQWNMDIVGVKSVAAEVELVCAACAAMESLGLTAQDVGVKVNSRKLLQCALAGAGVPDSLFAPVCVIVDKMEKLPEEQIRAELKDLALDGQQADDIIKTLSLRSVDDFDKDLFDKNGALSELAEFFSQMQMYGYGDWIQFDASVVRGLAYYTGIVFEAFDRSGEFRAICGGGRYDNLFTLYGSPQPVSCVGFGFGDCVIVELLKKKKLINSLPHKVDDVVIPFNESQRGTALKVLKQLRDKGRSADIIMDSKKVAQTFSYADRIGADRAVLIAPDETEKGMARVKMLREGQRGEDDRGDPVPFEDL
UniProt I6X8D2, whole entry: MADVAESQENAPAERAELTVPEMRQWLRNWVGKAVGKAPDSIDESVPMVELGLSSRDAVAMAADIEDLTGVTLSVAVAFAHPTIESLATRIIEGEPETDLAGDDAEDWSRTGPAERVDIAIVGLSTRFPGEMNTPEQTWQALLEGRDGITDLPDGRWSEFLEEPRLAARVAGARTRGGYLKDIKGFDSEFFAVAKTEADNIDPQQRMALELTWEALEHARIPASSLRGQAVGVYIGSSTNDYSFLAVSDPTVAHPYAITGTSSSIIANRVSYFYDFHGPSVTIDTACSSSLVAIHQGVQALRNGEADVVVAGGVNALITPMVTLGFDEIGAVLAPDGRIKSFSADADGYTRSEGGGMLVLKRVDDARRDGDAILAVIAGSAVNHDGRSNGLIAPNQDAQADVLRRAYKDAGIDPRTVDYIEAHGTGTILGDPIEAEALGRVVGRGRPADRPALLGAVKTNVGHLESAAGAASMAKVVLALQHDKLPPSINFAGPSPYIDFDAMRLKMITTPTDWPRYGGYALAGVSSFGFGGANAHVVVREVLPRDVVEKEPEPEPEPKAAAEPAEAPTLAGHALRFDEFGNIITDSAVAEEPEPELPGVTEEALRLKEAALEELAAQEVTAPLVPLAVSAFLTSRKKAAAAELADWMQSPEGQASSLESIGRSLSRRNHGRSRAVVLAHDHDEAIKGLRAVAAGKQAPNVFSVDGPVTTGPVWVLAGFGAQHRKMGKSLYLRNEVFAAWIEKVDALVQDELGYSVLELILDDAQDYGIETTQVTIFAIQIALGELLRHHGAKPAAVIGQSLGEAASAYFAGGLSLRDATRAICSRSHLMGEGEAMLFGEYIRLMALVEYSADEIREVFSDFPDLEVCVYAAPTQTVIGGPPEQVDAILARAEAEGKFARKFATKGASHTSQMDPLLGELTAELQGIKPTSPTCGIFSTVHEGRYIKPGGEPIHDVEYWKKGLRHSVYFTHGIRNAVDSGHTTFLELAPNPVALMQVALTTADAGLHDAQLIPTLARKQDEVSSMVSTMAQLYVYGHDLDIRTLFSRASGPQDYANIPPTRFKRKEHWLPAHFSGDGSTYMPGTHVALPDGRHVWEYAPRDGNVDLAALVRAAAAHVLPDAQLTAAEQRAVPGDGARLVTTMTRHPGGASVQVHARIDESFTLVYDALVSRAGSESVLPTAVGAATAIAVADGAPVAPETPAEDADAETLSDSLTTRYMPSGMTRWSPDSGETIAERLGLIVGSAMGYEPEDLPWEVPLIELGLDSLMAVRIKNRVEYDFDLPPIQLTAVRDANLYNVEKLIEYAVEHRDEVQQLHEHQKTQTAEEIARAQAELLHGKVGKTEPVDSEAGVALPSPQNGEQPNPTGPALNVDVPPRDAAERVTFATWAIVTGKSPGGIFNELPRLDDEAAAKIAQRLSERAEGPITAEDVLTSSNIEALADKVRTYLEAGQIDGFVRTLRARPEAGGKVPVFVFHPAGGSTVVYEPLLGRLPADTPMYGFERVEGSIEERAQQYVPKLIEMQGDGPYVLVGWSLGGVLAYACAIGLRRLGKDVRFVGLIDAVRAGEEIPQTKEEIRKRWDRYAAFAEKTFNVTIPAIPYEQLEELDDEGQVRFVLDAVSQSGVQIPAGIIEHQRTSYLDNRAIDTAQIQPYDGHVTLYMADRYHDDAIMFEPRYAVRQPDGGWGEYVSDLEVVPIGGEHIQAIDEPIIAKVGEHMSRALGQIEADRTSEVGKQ

Measurements from “University of Dundee, Small-Polar-MMV Screening Library” (2021), ChEMBL document CHEMBL3988442.

A: 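Cell assay of Leishmania donovani living inside macrophages; the read-out is not stated. Tested at 30 µM. The record gives no direction; compounds that gave an IC50 in retests scored well above the rest, so higher reads as stronger inhibition. About 69,000 compounds were tested under these conditions; 1.5% (about 1,000) showed 50% or more at least once.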
B: 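Enzyme assay of histidyl-tRNA synthetase; the read-out is not stated. Target: Histidine-tRNA ligase, Leishmania infantum (UniProt A4I591). Compounds at 30 µM. The record gives no direction; compounds that gave an IC50 in retests scored well above the rest, so higher reads as stronger inhibition. The assay is labelled LdHisRS but filed under L. infantum. About 69,000 compounds were tested under these conditions; 0.6% (about 410) showed 50% or more at least once.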
C: 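Enzyme assay of the thioesterase domain of polyketide synthase 13; the read-out is not stated. Target: Polyketide synthase Pks13, Mycobacterium tuberculosis (UniProt I6X8D2). Tested at 30 µM. Higher reads as stronger inhibition (inferred from which compounds were picked for retests). Of about 67,000 compounds tested this way, about 300 (0.46%) reached 50% or more in at least one test.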

Results are given as percent effect. The controls that fix the scale are not given in the record; negative values are as filed. Compounds were drawn at random from those tested, without regard to their results. Two or more numbers in one place are separate tests of the same structure; such repeats can differ widely. A dash means the value is not listed here; it may have been measured.

compound | A | B | C
CNc1ccc(CC2CCCN(C(=O)c3cnc(C)nc3)C2)nn1 (stereo unspecified) | -5.895 | 17.14 | -10.12
Cc1csc(C(C)(C)NCCOc2ccc(CC#N)cc2)n1 | -10.37 | 9.333 | -3.509
Cc1nn(C)c(Cl)c1C1CCCN1C(=O)c1ccoc1C (stereo unspecified) | 17.82 | 1.786 | 8.4
CC(c1ccco1)N(C(=O)NCc1ccon1)C1CC1 (stereo unspecified) | 6.042 | -4.839 | -15.74
CN(CC(=O)Nc1nc2c(s1)CCCCCC2)C(=O)c1ccco1 | 17.47 | 14.88 | -13.33
c1ccc([C@@H]2CN(Cc3ccncc3)C[C@H]2c2cc[nH]n2)cc1 | - | 2.685 | -3.543
CC(=O)N1CC2(CCNCC2)c2cc(Cl)ccc21 | - | 26.61 | -20.24
CN(C)Cc1nnc2n1CCN(c1cnccn1)CC2 | - | 12.82 | -33.59
COCCN(C)C[C@@H]1CCC[C@@H]2CN(Cc3ccc(OC)nc3)C[C@@H]21 | - | 12.82 | -33.05
O=C(c1ncccn1)N1CCC2(CC1)COC(COc1ccccn1)C2 (stereo unspecified) | - | 18.18 | -18.67
C1CC(CN2C[C@@H]3C[C@@H](c4nnc(C5CC5)o4)O[C@@H]3C2)CCO1 | - | 11.11 | -12.93
COCC(C)N(C)C(=O)CCc1c(C)nc2c(C#N)cnn2c1C (stereo unspecified) | 6.818 | 13.19 | 4.732
Cn1ncc(N2CCOC(CCNC(=O)NC(C)(C)C)C2)cc1=O (stereo unspecified) | 11.62 | -7.447 | -1.507
CC(=O)Nc1nc(C(=O)NCCOc2cccc(F)c2)cs1 | 1.369 | 11.29 | -10.98
O=C(NC1CC1)[C@H]1C[C@H]2OCC[C@H]2N(Cc2ccc3ccccc3n2)C1 | - | 34 | 2.714
CCCn1nc2c(cc1=O)CN(CC(=O)Nc1ccncc1)CC2 | -15.53 | 25 | 3.134
CS(=O)(=O)NCCCNC(=O)c1cccnc1O | 18.48 | -1.923 | 1.666
Cc1csc(C(Cc2ccsc2)NC(=O)CN(C)Cc2cccnc2)n1.Cl (stereo unspecified) | 19.41 | - | -
Cc1cccc(C2CCN(S(=O)(=O)c3cn(C)cn3)CC2)n1 | 13.18 and 11.51 | 24.21 | -11.73
CCC(NC(=O)NC1CCN(S(C)(=O)=O)CC1)c1cccs1 (stereo unspecified) | -21.58 | 12.4 | 5.901
COC(=O)C1C=CCN1C(=O)c1cc(COc2ccccc2)[nH]n1 (stereo unspecified) | 18.68 | 29.37 | -9.158
COc1cccc(COCC(=O)N2CCCC(n3ccnc3)C2)c1 (stereo unspecified) | 6.757 | -33.33 | -12.87
CN(C)Cc1cnn(-c2ccccc2C(=O)N(C)Cc2ccccc2)c1 | 13.8 and 17.77 | 24.21 | 2.997
c1csc(CN2CCOCC3(CCN(C4CCOCC4)C3)C2)n1 (stereo unspecified) | - | 17.65 | -8.313
CS(=O)(=O)N1CCc2c(cccc2NC(=O)NC2CCCC2)C1 | 5.943 | 8.036 | 20.05
Cc1cc(C[C@@H]2CCC[C@H]2NCc2cc(F)ccc2F)on1.O=C(O)CC(O)(CC(=O)O)C(=O)O | 8.607 and 5.452 | - | -
Fc1ccc(CN2CCC3(CCN(Cc4nccs4)CC3)C2)cc1.O=C(O)C(F)(F)F.O=C(O)C(F)(F)F | 14.68 | - | -
COC[C@@]12CCC[C@@H]1CN(C(=O)Cc1ccccn1)C2 | - | -1.98 | -28.09
Cn1ccnc1CN1CCC2(CC1)CN(Cc1ccccc1)C(=O)CO2.O=C(O)C(F)(F)F | -6.11 and 11.63 | - | -
COCCN1C(=O)CCC12CCN(C(=O)CNC(C)=O)CC2 | 21.99 | 21.1 | -20.32
NC(=O)Cn1c(CO)cnc1SCC(=O)NCc1ccccc1 | -4.555 | 12.9 | -24.08
CN1C[C@@H](COCC2CC2)[C@H]2CCN(Cc3ccco3)CC[C@H]2C1=O | - | 24.14 | -35.33
[H][C@]12CC[C@]([H])(CC(=O)NC1)N2C(=O)CCc1ccccc1 | 0.05808 | - | -
CCCn1nc2c(cc1=O)CN(Cc1c(C)noc1C)CC2 | 14.07 | 27.27 | -15.19
Cc1nc(CCCNC(=O)c2coc(CN3CCOCC3)c2)sc1C | -4.627 | 13.43 | -12.2
CN(C)C(=O)C1(C)CN(Cc2cn(C)c3ccc(F)cc23)CCO1 (stereo unspecified) | 29.32 | 8.451 | -0.6329
CC(=O)N1CCN(C(=O)NCc2cccnc2OC(C)C)CC1 | -11.16 | 12.73 | -32.67
O=C(O)C(F)(F)F.c1csc(CN2Cc3nccn3CC(Cn3cncn3)C2)c1 (stereo unspecified) | 46.63 | - | -
COc1ccc(CN2CCOC[C@H](Oc3cccnc3)C2)cc1 | -1.711 | -1.351 | 11.98
CSC(C)C(=O)N1CCCN(Cc2cscn2)CC1 (stereo unspecified) | -11.97 | 20 | -2.143
Cc1noc(C)c1CN1CCc2ncnc(-c3cnn(C)c3)c2CC1 | - | 11.82 | -10.14
Cc1nc2ccnn2c(C)c1CCC(=O)N1CCN(CCO)CC1 | 14.29 | -0.8772 | -2.362
CCc1nnc(CN(C)c2nccc(N3CCCC(O)C3)n2)o1 (stereo unspecified) | 0.484 | 12.59 | -29.07
O=C(CCCN1CCCCC1)N1CCC(c2nnc[nH]2)CC1 | 22.64 | 16.46 | -37.96
COCC(=O)N1CCC(Cc2nccnc2-c2c(C)n[nH]c2C)C1 (stereo unspecified) | -16.81 and 12.3 | 2.062 | -13.26
CCc1[nH]ncc1C(=O)N1CCCC(n2cncn2)C1 (stereo unspecified) | 19.41 | 8.929 | -11.35
COc1ccc(CN[C@@H]2CO[C@H](CNC(=O)NC(C)C)[C@H]2O)cc1 | 38.09 | 22.22 | -33.91
CSCc1noc(CNC(=O)C2CCN(C3CCCCC3)CC2)n1 | 24 | 20.41 | -16.52
CCc1[nH]ncc1C(=O)N1CCOC(c2nc(C)n[nH]2)C1 (stereo unspecified) | 13.97 | 4.348 | -10.83
O=C(C1CCC2(CCN(Cc3cccnc3)CC2)CO1)N1CCCC1 (stereo unspecified) | - | 8.182 | -3.881
Cc1nccc(CC2COCCN(c3cnccn3)C2)n1 (stereo unspecified) | -14.05 | 2.817 | 6.212
[H][C@@]12CCN(C(=O)Cc3ccsc3)C[C@@]1([H])O[C@H](c1noc(C)n1)C2 | 4.75 | - | -
COCCN(Cc1cc(O)nc2ccccc12)C(=O)NC(C)C | 20.78 | 14.29 | 6.057
[H][C@]12CC[C@]([H])(CN(Cc3cccnc3)C1)N(C(=O)c1ccnc(N)c1)C2 | 23.01 | - | -
CCc1ccc(CC(=O)N2CCN(c3nccn3C)CC2)cc1 | 37.09 | 15.73 | -4.412
CN(C)c1nccc(N(C)Cc2ncnn2C)n1 | 16.16 | 8.511 | -9.818
CS(=O)(=O)NCC(Cc1cccc(F)c1)N1CCNC1=O (stereo unspecified) | -18 | 20.51 | -14
CN(C)CC(Nc1nc(N)nc2c1CCNCC2)c1ccccc1 (stereo unspecified) | 42.63 | 6.024 | -8.374
COc1ccc(F)cc1-c1nc2c([nH]1)c(C1CC1)nn2C | 14.73 | 12.68 | -42.95
Cc1ccc2[nH]c(C(=O)N3CCCC3Cn3cccn3)cc2c1 (stereo unspecified) | 25.06 | 14.29 | -19.17
CN(C)CCN(C)C(=O)Cn1cccc2cc(-c3ccc(F)cc3)nc1-2 | 78.9 | 11.35 | 29.87
Cc1cccc(OCCNC(=O)CN2CCc3cncnc3C2)c1 | -10.71 | 20.18 | -11.59
N#Cc1cc(S(N)(=O)=O)ccc1NC1CCc2c(F)cccc21 (stereo unspecified) | -12.9 | 20.18 | -
Cc1cc(-c2cnc(N3CCCC3)nc2C(C)C)on1 | -25.25 | 2.797 | 2.985
O=C(c1cc(C2CCCCN2C(=O)C2CCC2)n[nH]1)N1CCOCC1 (stereo unspecified) | -8.909 | 19.79 | 13.07
COc1ccc(COCC(O)CNC(=O)c2cccnc2)cc1 (stereo unspecified) | -21.02 | 0 | -8.606
O=c1n(Cc2ccc(F)cc2)nc2ncccn12 | -24.52 | 17.39 | 4.956
CNCc1cc(F)ccc1Oc1ccc(Cl)cc1 | -3.595 | 8.247 | -2.37

The first 5 entries again:

compound,A,B,C
CNc1ccc(CC2CCCN(C(=O)c3cnc(C)nc3)C2)nn1 (stereo unspecified),-5.895,17.14,-10.12
Cc1csc(C(C)(C)NCCOc2ccc(CC#N)cc2)n1,-10.37,9.333,-3.509
Cc1nn(C)c(Cl)c1C1CCCN1C(=O)c1ccoc1C (stereo unspecified),17.82,1.786,8.4
CC(c1ccco1)N(C(=O)NCc1ccon1)C1CC1 (stereo unspecified),6.042,-4.839,-15.74
CN(CC(=O)Nc1nc2c(s1)CCCCCC2)C(=O)c1ccco1,17.47,14.88,-13.33